The chains behind the UniProt entries cited, without tags or fusion partners. Where a name states a change or a piece, a line headed by the entry shows the natural chain unless it says otherwise.
UniProt Q9FXT6: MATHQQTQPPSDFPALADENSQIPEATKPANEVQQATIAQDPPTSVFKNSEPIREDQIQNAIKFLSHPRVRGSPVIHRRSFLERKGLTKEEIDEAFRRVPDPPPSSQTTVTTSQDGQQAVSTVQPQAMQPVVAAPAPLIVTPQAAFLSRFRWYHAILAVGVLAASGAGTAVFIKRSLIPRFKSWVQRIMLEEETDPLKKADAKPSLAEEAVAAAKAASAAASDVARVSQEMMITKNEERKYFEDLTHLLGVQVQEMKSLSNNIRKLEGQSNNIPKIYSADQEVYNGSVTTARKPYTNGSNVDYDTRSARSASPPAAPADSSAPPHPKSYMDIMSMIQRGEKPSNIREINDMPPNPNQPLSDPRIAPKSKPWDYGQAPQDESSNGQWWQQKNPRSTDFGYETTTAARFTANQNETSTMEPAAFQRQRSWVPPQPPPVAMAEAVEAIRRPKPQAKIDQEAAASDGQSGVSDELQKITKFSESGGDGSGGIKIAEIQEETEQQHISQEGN

According to article PMC4065332, “PEX14 binding to Arabidopsis PEX5 has differential effects on PTS1 and PTS2 cargo occupancy of the receptor” (Febs Letters, 2014):

T1: PEX5 (1–728), recombinant Arabidopsis PEX5 (Arabidopsis thaliana) (UniProt Q9FMA3)
T1 sequence: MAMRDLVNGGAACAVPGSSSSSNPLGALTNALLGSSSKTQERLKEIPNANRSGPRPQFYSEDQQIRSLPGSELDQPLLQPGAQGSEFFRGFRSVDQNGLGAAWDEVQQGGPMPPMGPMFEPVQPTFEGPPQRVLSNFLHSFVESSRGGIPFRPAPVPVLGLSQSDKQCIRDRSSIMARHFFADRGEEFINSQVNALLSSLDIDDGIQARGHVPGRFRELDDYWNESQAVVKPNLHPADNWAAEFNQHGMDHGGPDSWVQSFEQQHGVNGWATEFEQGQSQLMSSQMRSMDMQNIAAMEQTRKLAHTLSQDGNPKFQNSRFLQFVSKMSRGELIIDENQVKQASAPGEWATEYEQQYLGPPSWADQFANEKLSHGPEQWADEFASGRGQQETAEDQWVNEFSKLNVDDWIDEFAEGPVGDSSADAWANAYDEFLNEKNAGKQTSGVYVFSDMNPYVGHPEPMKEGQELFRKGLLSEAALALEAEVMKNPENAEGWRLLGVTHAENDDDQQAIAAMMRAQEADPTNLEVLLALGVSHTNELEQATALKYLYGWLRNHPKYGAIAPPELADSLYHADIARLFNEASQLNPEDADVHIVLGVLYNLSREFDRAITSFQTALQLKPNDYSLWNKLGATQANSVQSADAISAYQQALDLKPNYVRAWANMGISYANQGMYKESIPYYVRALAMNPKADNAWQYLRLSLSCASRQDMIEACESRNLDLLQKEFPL


Tests used:
[1] = target: T1, PEX5 (1–728), recombinant Arabidopsis PEX5 (Arabidopsis thaliana); test: pull-down; Arabidopsis cytosolic fraction (~6 mg/mL, 500 μL) depleted on Ni–NTA, incubated with hexahistidine-tagged recombinant protein (33 μM in 50 μL PBS), 4 °C, 1 h; captured on Ni–NTA, washed with PBS, eluted with 1 M imidazole; immunoblots against PEX5, PEX7 and thiolase; only the target purified
[2] = target: PEX14 (1–154), termed PEX14N (Arabidopsis thaliana) (UniProt Q9FXT6); test: as above

binding [1] | binding [2] | Molecule
binds | – | thiolase (PTS2 cargo; endogenous, Arabidopsis cytosol) (enzyme)
– | binds | PEX7 (endogenous, Arabidopsis cytosol) (receptor, UniProt Q9XF57 1-317) MPVFKAPFNGYSVKFSPFYESRLAVATAQNFGILGNGRIHVLELAPGAPGVTESVSYDTADAVYDVCWSESHDSVLIAAIGDGSVKIYDTALPPPSNPIRSFQEHAREVQSVDYNPTRRDSFLTSSWDDTVKLWAMDRPASVRTFKEHAYCVYQAVWNPKHGDVFASASGDCTLRIWDVREPGSTMIIPAHDFEILSCDWNKYDDCILATSSVDKTVKVWDVRSYRVPLAVLNGHGYAVRKVKFSPHRRSLIASCSYDMSVCLWDYMVEDALVGRYDHHTEFAVGIDMSVLVEGLMASTGWDELVYVWQQGMDPRAS

These are yes or no findings as the source states them, for the method shown. Binding seen in cells or lysates may run through a third protein. A result given as binding can be weak or reduced; the word gives no strength.
